Results published in paper PMC8879280, “A Low-Activity Polymorphic Variant of Human NEIL2 DNA Glycosylase”.

Assays:
Assay in all cases: EMSA
[1] = molecular target: T1, hNEIL2 P304T (Homo sapiens) (UniProt Q969S2); settings: 5 mM Mg2+, smear, weaker than WT and than THF:G duplex; 25 mM potassium phosphate pH 7.5, 5 mM MgCl2, 1 mM DTT, 0.5 mg/mL BSA, 10% glycerol; 35 nM bubble or 100 nM duplex ligand; 5 min on ice, 8% native PAGE at 4 C; recombinant protein; protein details: C-terminal GHHHHHH; label: 32P
T1 sequence (looked up, limits assumed): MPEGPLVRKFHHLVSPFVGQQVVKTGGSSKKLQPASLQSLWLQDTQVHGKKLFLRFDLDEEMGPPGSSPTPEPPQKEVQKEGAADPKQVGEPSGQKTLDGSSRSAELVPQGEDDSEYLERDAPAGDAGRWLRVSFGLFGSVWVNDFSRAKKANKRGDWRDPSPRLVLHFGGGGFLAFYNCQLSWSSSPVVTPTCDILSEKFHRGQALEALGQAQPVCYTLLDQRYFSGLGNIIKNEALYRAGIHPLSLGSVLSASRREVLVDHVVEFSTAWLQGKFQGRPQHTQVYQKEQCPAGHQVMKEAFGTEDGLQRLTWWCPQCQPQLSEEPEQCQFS

[2] = molecular target: T2, hNEIL2 R103W (Homo sapiens) (UniProt Q969S2); settings: 5 mM Mg2+, smear, weaker than WT and than THF:G duplex; 25 mM potassium phosphate pH 7.5, 5 mM MgCl2, 1 mM DTT, 0.5 mg/mL BSA, 10% glycerol; 35 nM bubble or 100 nM duplex ligand; 5 min on ice, 8% native PAGE at 4 C; recombinant protein; protein details: C-terminal GHHHHHH; label: 32P
T2 sequence (looked up, limits assumed): T1 sequence (looked up, limits assumed) with R103W, T304P

hNEIL2 WT (Homo sapiens) = molecular target: T3, hNEIL2 WT (Homo sapiens) (UniProt Q969S2); settings: 5 mM Mg2+, smear, weaker than THF:G duplex; 25 mM potassium phosphate pH 7.5, 5 mM MgCl2, 1 mM DTT, 0.5 mg/mL BSA, 10% glycerol; 35 nM bubble or 100 nM duplex ligand; 5 min on ice, 8% native PAGE at 4 C; recombinant protein; protein details: C-terminal GHHHHHH; label: 32P
T3 sequence (looked up, limits assumed): T1 sequence (looked up, limits assumed) with T304P

Measured: binding result

CTCTCCCTTCCCTCCTTTCCTCT (double strand) [undamaged C:G duplex (23C//23comp)]
binds more weakly: all assays above

Changes are numbered by the printed parent chain. Construct, isoform or probe ends are uncertain for at least one entry. A weaker result is weaker than the reference pair of the same experiment. Where a protein sequence is shown, tags need not be part of it.
